Data as given in PubChem BioAssay AID1259254 (NCATS, 2017)

Screen: 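Finding genes that stop cells copying their DNA twice in one cycle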 (primary screen)
System: human HCT116 colorectal cancer cells
Reagents: single siRNA against human genes
Duration: 3 days
Measurement: 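Imaged Hoechst DNA stain sorts each cell into a cycle phase by DNA amount; per plate, G2 fraction set to 0% for non-targeting and 100% for GMNN siRNA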
Reading the numbers: G2 robust z-score: higher = more G2 cells, more excess DNA replication
Call rule: 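Active siRNAs have a G2 robust z of 5 or more median absolute deviations over the median, which in these data means about 38% or higher of GMNN control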
The whole screen tested about 59,000 reagents; this is a random part of them. Of all reagents, about 1,550 (2.6%) were called active. 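G2 share is only a proxy for re-replication; each gene was hit by three separate siRNAs, and active genes were retested.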 The numbers tell different reagents against one gene apart. Further read-outs or replicates are left out here. Not given: the amount of reagent.

no.	gene	reagent	G2 robust z-score	Outcome
1	SELPLG (selectin P ligand)	1	0.174	inactive
2	SELPLG (selectin P ligand)	2	0.874	inactive
3	SELPLG (selectin P ligand)	3	0.916	inactive
4	MORC4 (MORC family CW-type zinc finger 4)	1	0.424	inactive
5	MORC4 (MORC family CW-type zinc finger 4)	2	-0.429	inactive
6	MORC4 (MORC family CW-type zinc finger 4)	3	1.63	inactive
7	ZFYVE19 (zinc finger FYVE-type containing 19)	1	-0.591	inactive
8	ZFYVE19 (zinc finger FYVE-type containing 19)	2	0.12	inactive
9	ZFYVE19 (zinc finger FYVE-type containing 19)	3	-0.126	inactive
10	MTAP (methylthioadenosine phosphorylase)	1	-0.0431	inactive
11	MTAP (methylthioadenosine phosphorylase)	2	-0.291	inactive
12	MTAP (methylthioadenosine phosphorylase)	3	-0.388	inactive
13	LGR4 (leucine rich repeat containing G protein-coupled receptor 4)	1	1.56	inactive
14	LGR4 (leucine rich repeat containing G protein-coupled receptor 4)	2	-0.928	inactive
15	LGR4 (leucine rich repeat containing G protein-coupled receptor 4)	3	-0.249	inactive
16	WWP2 (WW domain containing E3 ubiquitin protein ligase 2)	1	-1.35	inactive
17	WWP2 (WW domain containing E3 ubiquitin protein ligase 2)	2	-0.37	inactive
18	WWP2 (WW domain containing E3 ubiquitin protein ligase 2)	3	-0.399	inactive
19	H2AC21 (H2A clustered histone 21)	1	4.38	inactive
20	H2AC21 (H2A clustered histone 21)	2	1.31	inactive
21	H2AC21 (H2A clustered histone 21)	3	0.245	inactive
22	SLC9A8	1	-0.98	inactive
23	SLC9A8	2	0.424	inactive
24	SLC9A8	3	2.09	inactive
25	TMEM125 (transmembrane protein 125)	1	-1.01	inactive
26	TMEM125 (transmembrane protein 125)	2	0.103	inactive
27	TMEM125 (transmembrane protein 125)	3	-0.384	inactive
28	PRRG2 (proline rich and Gla domain 2)	1	0.318	inactive
29	PRRG2 (proline rich and Gla domain 2)	2	1.16	inactive
30	PRRG2 (proline rich and Gla domain 2)	3	-0.497	inactive
31	ANKRA2 (ankyrin repeat family A member 2)	1	0.488	inactive
32	ANKRA2 (ankyrin repeat family A member 2)	2	-1.1	inactive
33	ANKRA2 (ankyrin repeat family A member 2)	3	3.36	inactive
34	ACR (acrosin)	1	0.458	inactive
35	ACR (acrosin)	2	-0.454	inactive
36	ACR (acrosin)	3	-0.000968	inactive
37	SLC35F1	1	-0.182	inactive
38	SLC35F1	2	0.749	inactive
39	SLC35F1	3	5.02	active
40	AVL9 (AVL9 cell migration associated)	1	1.61	inactive
41	AVL9 (AVL9 cell migration associated)	2	0.465	inactive
42	AVL9 (AVL9 cell migration associated)	3	-0.654	inactive
43	TINAG (tubulointerstitial nephritis antigen)	1	0.84	inactive
44	TINAG (tubulointerstitial nephritis antigen)	2	-0.566	inactive
45	TINAG (tubulointerstitial nephritis antigen)	3	1.58	inactive
46	STEAP1 (STEAP family member 1)	1	-0.911	inactive
47	STEAP1 (STEAP family member 1)	2	-0.638	inactive
48	STEAP1 (STEAP family member 1)	3	3.42	inactive
49	SLC15A2	1	0.0259	inactive
50	SLC15A2	2	1.97	inactive
51	SLC15A2	3	6.29	active
52	FCHSD1 (FCH and double SH3 domains 1)	1	-0.0623	inactive
53	FCHSD1 (FCH and double SH3 domains 1)	2	-0.772	inactive
54	FCHSD1 (FCH and double SH3 domains 1)	3	-0.898	inactive
55	STAG3L4 (STAG3 cohesin complex component like 4 (pseudogene))	1	0.913	inactive
56	STAG3L4 (STAG3 cohesin complex component like 4 (pseudogene))	2	-0.627	inactive
57	STAG3L4 (STAG3 cohesin complex component like 4 (pseudogene))	3	-0.319	inactive
58	IFNA2 (interferon alpha 2)	1	-0.824	inactive
59	IFNA2 (interferon alpha 2)	2	1.86	inactive
60	IFNA2 (interferon alpha 2)	3	1.25	inactive
61	TMEM98 (transmembrane protein 98)	1	0.432	inactive
62	TMEM98 (transmembrane protein 98)	2	-0.132	inactive
63	TMEM98 (transmembrane protein 98)	3	0.05	inactive
64	CFAP91 (cilia and flagella associated protein 91)	1	3.97	inactive
65	CFAP91 (cilia and flagella associated protein 91)	2	0.579	inactive
66	CFAP91 (cilia and flagella associated protein 91)	3	-0.918	inactive
67	CARTPT (CART prepropeptide)	1	0.588	inactive
68	CARTPT (CART prepropeptide)	2	1.42	inactive
69	CARTPT (CART prepropeptide)	3	0.986	inactive

7 of these entries, set out differently.
MTAP (methylthioadenosine phosphorylase) #3 → G2 robust z-score = -0.388; Outcome = inactive
LGR4 (leucine rich repeat containing G protein-coupled receptor 4) #1 → G2 robust z-score = 1.56; Outcome = inactive
LGR4 (leucine rich repeat containing G protein-coupled receptor 4) #2 → G2 robust z-score = -0.928; Outcome = inactive
LGR4 (leucine rich repeat containing G protein-coupled receptor 4) #3 → G2 robust z-score = -0.249; Outcome = inactive
WWP2 (WW domain containing E3 ubiquitin protein ligase 2) #1 → G2 robust z-score = -1.35; Outcome = inactive
WWP2 (WW domain containing E3 ubiquitin protein ligase 2) #2 → G2 robust z-score = -0.37; Outcome = inactive
WWP2 (WW domain containing E3 ubiquitin protein ligase 2) #3 → G2 robust z-score = -0.399; Outcome = inactive
